# Reference: PubChem BioAssay AID1671190 (National Center for Advancing Translational Sciences (NCATS), 2021)
# Chains of the proteins cited; added tags and fusions are not shown. Lines headed by an entry give the natural chain unless they say otherwise; changes in a name come on top.
# UniProt P18054: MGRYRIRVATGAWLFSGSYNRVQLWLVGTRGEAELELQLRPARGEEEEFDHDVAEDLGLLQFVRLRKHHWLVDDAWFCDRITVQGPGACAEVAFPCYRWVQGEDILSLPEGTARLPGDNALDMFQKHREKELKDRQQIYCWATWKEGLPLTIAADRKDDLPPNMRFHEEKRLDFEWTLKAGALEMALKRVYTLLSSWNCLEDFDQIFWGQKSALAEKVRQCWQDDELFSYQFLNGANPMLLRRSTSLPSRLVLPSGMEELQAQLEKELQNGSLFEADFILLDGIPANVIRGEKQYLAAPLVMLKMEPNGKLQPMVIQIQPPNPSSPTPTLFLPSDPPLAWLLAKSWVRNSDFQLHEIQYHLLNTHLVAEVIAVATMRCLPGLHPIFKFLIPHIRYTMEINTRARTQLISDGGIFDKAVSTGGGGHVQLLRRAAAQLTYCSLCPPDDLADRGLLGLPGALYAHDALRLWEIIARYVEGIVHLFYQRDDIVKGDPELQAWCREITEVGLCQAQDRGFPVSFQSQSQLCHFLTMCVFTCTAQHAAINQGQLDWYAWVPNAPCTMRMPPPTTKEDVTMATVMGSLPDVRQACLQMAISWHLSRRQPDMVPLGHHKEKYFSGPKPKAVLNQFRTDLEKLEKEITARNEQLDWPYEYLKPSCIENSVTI
# Hit rate of the full screen: of about 580,000 compounds, about 6,100 (1.1%) were called active. Inconclusive results, whose numbers are uncertain, are shown with a selection of clear calls. The call rests on the fitted dose curve; in most records, active means well fitted inhibition curve with a large enough effect; inconclusive means small, poorly fitted or top-dose-only effect, or another doubt; inactive means no such curve, though single readings can be large or run the other way. Potencies of inconclusive entries are doubtful fits and often do not repeat.
# Biological target: Polyunsaturated fatty acid lipoxygenase ALOX12 (Homo sapiens) (UniProt P18054)
# Experiment: Primary qHTS assay for inhibitors of human arachidonate 12S-lipoxygenase (ALOX12): Round 2
# Conditions: purified 12hLO, xylenol orange hydroperoxide absorbance; series mostly up to 108 µM
# How it was run: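 Hydroperoxide product was detected by ferrous iron/xylenol orange as the 573 to 405 nm absorbance ratio. Arachidonic acid at 40 uM (final) was turned over for 30 min at room temperature by 150 nM human 12hLO, pH 7.0 Hepes buffer, after 15 min compound preincubation.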
# Potency means the concentration at half of the fitted maximal effect.
row,Structure (SMILES),Potency
1,CC(C)Oc1cccc(C2CC(=O)Nc3nc(N)sc32)c1 (configuration not stated),"inconclusive: 3.55 µM [inhibitor, full curve, poor fit]"
2,COc1ccc(NS(=O)(=O)c2ccc(NC(=O)Cc3cccs3)cc2)cc1,"inconclusive: 56.2 µM [inhibitor, partial curve, poor fit]"
3,O=C(Cc1ccc([N+](=O)[O-])cc1)N1CCN(c2ccc([N+](=O)[O-])cc2)CC1,"inconclusive: 44.7 µM [inhibitor, partial curve, poor fit]"
4,Cc1ccc2c(C)cc[n+](CCCS(=O)(=O)[O-])c2c1,inactive
5,OCC1(Cc2ccccc2)CCCN(Cc2ccc(-c3ccco3)cc2)C1 (configuration not stated),inactive
6,CCn1ccc2cc(S(=O)(=O)N3CCC(C(=O)NCc4cccc(C)c4)CC3)ccc21,"inconclusive: 35.5 µM [inhibitor, single point]"
7,COCCN=c1scc(-c2ccc3c(c2)NC(=O)CO3)n1/N=C(\C)c1ccc(O)cc1,"inconclusive: 44.7 µM [inhibitor, partial curve, poor fit]"
8,CC(=O)c1c(C)[nH]c(C(=O)OCC(=O)Nc2ccc3c(c2)OCCO3)c1C,"inconclusive: 50.1 µM [inhibitor, partial curve, poor fit]"
9,COc1ccc(C(C)=O)cc1COC(=O)c1c(F)cccc1Cl,"inconclusive: 44.7 µM [inhibitor, partial curve, poor fit]"
10,Cc1ccc(C(=O)Nc2cccc(S(=O)(=O)N3CCCCC3)c2)cc1S(=O)(=O)N1CCOCC1,inactive
11,Cc1nn2c(c1-c1ccccc1Oc1ccccc1)N(C(=O)Cc1ccc3c(c1)OCO3)CCC2,"inconclusive: 28.2 µM [inhibitor, partial curve, poor fit]"
12,N#Cc1c(NC(=O)Cn2cnc3ccccc3c2=O)oc(-c2ccccc2)c1-c1ccccc1,"inconclusive: 0.282 µM [inhibitor, single point]"
13,C/C(=C/CCC(C)(O)C1CC[C@@]2(C)[C@@H]3CC=C4[C@@H](CC[C@H](O[C@H]5O[C@@H](CO)[C@H](O)[C@@H](O)[C@@H]5O)C4(C)C)[C@]3(C)C(=O)C[C@]12C)CO[C@@H]1O[C@H](CO)[C@@H](O)[C@H](O)[C@H]1O (some centres not stated),"inconclusive: 112 µM [inhibitor, single point]"
14,CC(C)c1ccc(CN2C[C@@H]3C(=O)N(CCc4ccccc4)C(=O)[C@@H]3C2)cc1,inactive
15,O=C(/C=C/c1ccc(F)cc1)c1ccc(-c2ccccc2)cc1,"inconclusive: 70.8 µM [inhibitor, partial curve, poor fit]"
16,CCn1cnc2c1c(=O)n(CC(=O)c1cc(C)n(C)c1C)c(=O)n2Cc1ccccc1,"inconclusive: 3.55 µM [inhibitor, full curve]"
17,Cc1c(C(=O)N2CCC3(CC2)CC(=O)c2ccccc2O3)cccc1[N+](=O)[O-],inactive
18,Cc1cc(=O)oc2c(C)c(OCC(=O)NCCN(C)C)ccc12,inactive
19,O=S(=O)(c1ccc(Cl)cc1)c1nnn2c1nc(N1CCOCC1)c1ccccc12,"inconclusive: 28.2 µM [inhibitor, partial curve, poor fit]"
20,CC(=O)Nc1cccc(CCc2nc3ccccc3[nH]2)c1,inactive
21,CCOC(=O)C1=C(C(=O)OCC)N(CC2CCCCC2)CCC1=O,"inconclusive: 126 µM [inhibitor, single point]"
22,CCOP(=O)(OCC)c1nc(/C=C/c2ccccc2)oc1NCc1ccc(OC)cc1,"inconclusive: 35.5 µM [inhibitor, partial curve, poor fit]"
23,O=C(CCNS(=O)(=O)c1ccccc1C(F)(F)F)NC1CCCCCC1,inactive

row,Structure (SMILES),Potency
1,Cn1nc(C(=O)NCc2ccco2)c2ccccc2c1=O,"inconclusive: 100 µM [inhibitor, partial curve, poor fit]"
2,CC(C)(C)c1ccc(CNCCCC(=O)O)cc1,"inconclusive: 35.5 µM [inhibitor, partial curve, poor fit]"
3,O=C(COC(=O)c1cc(=O)c2ccccc2o1)Nc1ccc(F)cc1,"inconclusive: 50.1 µM [inhibitor, single point]"
4,Fc1ccc(CNC(=S)Nc2ccc3ccccc3c2)cc1,"inconclusive: 50.1 µM [inhibitor, partial curve, poor fit]"
5,COc1ccc(S(=O)(=O)Nc2ccc(C)cc2)cc1OC,inactive
6,COc1ccc(-c2c(-c3ccsc3)oc(=O)c3cc(OC)c(OC)cc23)cn1,"inconclusive: 35.5 µM [inhibitor, partial curve, poor fit]"
7,CCc1ccc(CN(C(=O)c2cc(=O)c3cc(CC)ccc3o2)C2CCS(=O)(=O)C2)cc1 (configuration not stated),"inconclusive: 31.6 µM [inhibitor, partial curve, poor fit]"
8,CC(=O)N1CCC([C@@H]2CN(C(=O)CCCc3ccccc3)C[C@H]2CO)CC1,inactive
9,O=C(NCc1csc(-c2cccs2)n1)C1CCCCC1,"inconclusive: 112 µM [inhibitor, single point]"
10,O=C(NCc1ccccn1)C1CCC(=O)N1C1CCCC1 (configuration not stated),"inconclusive: 5.62 µM [inhibitor, single point]"
11,NC(=O)NC(=O)CCN1CCOC(c2cccc(Br)c2)C1 (configuration not stated),inactive
12,Cc1ccc(NC(=O)CN(C)C(=O)c2ccc3c(c2)nnn3C(C)C)cc1C,inactive
13,Cc1ccc(C(C)C)c(OCC(=O)Nc2ccc(S(=O)(=O)Nc3onc(C)c3C)cc2)c1,"inconclusive: 63.1 µM [inhibitor, partial curve, poor fit]"
14,Cc1nc(N2CCN(Cc3csc(C)n3)CC2)c2sccc2n1,"inconclusive: 10 µM [inhibitor, full curve, poor fit]"
15,O=C1NCCOCCCN(S(=O)(=O)c2cccc3cccnc23)[C@H]2CCCC[C@@H]12,"inconclusive: 35.5 µM [inhibitor, full curve]"
16,CC(C)c1nnc(Sc2nc(C(F)(F)F)nc3ccccc23)n1C1CC1,"inconclusive: 126 µM [inhibitor, single point]"
17,CCCS(=O)(=O)Nc1ccc(F)c(C(=O)c2c[nH]c3ncc(-c4ccc(Cl)cc4)cc23)c1F,"inconclusive: 1.37 µM [inhibitor, single point]"
18,COc1ccc(-c2cc(C(=O)N3CCN(C(=O)C(=O)N4CCOCC4)CC3)c3ccccc3n2)cc1,"inconclusive: 100 µM [inhibitor, single point]"
19,Cc1ccccc1S(=O)(=O)N1C(c2ccc(Cl)c(Cl)c2)CC=C(C(=O)O)C1c1cccc(Br)c1 (configuration not stated),active: 50.1 µM
20,NNc1ccc(Cc2ccc(NN)cc2)cc1,active: 20 µM
21,CC(Oc1cccc(Cl)c1)C(=O)NCCc1ccccn1 (configuration not stated),inactive
22,CCOc1ccc2nc(NC(=O)CS(=O)(=O)c3ccc(Cl)cc3)sc2c1,"inconclusive: 63.1 µM [inhibitor, partial curve, poor fit]"
23,O=C(c1cnn2ccccc12)N1CCC(Cc2cccc(CO)c2)C1 (configuration not stated),inactive

# Another view of 2 compounds above.
row | Structure (SMILES) | Potency
3 | O=C(Cc1ccc([N+](=O)[O-])cc1)N1CCN(c2ccc([N+](=O)[O-])cc2)CC1 | inconclusive: 44.7 µM [inhibitor, partial curve, poor fit]
18 | COc1ccc(-c2cc(C(=O)N3CCN(C(=O)C(=O)N4CCOCC4)CC3)c3ccccc3n2)cc1 | inconclusive: 100 µM [inhibitor, single point]

# Additional results:

row,Structure (SMILES),Potency
1,Cc1ccc(C)c(NC(=O)c2n[nH]c(=O)c3ccccc23)c1,inactive
2,COc1ccccc1-c1cc(C(F)(F)F)c(C#N)c(=O)[nH]1,"inconclusive: 100 µM [inhibitor, partial curve, poor fit]"
3,CCOC(=O)COc1ccc2c(C#N)c3ccccn3c2c1,inactive
4,Cc1nn(C)cc1/C=N/NC(=S)Nc1ccccc1,"inconclusive: 28.2 µM [inhibitor, partial curve, poor fit]"
5,O=C(Cn1c(NCCCO)nc2ccccc21)c1ccc([N+](=O)[O-])cc1,inactive
6,CC(O)CNCc1ccc(-c2cccc(C(F)(F)F)c2)o1 (configuration not stated),inactive
7,Cc1ccc(/C=C/c2cc(C(=O)O)c3ccccc3n2)c(C)c1,"inconclusive: 39.8 µM [inhibitor, partial curve]"
8,CN(CCC1CCCCO1)C(=O)CCc1nnc(C2CCCCC2)o1 (configuration not stated),"inconclusive: 0.891 µM [inhibitor, full curve, poor fit]"
9,CCOc1c(OC)cc(Br)c2cc(C(=O)O)[nH]c12,"inconclusive: 112 µM [inhibitor, single point]"
10,Cc1nn(-c2ccccn2)c2c1-c1nc(N)ncc1CC2,inactive
11,C=CC(C)(C)c1[nH]cnc1/C=C1\NC(=O)C(C(C)C)NC1=O (configuration not stated),"inconclusive: 1.78 µM [inhibitor, partial curve, poor fit]"
12,c1cnc2nc([C@H]3CCN(C4CCCCC4)C3)[nH]c2c1,inactive
13,O=C1CC(c2ccccc2)N(C(=O)CNC(=O)C2CCC2)CCCCCCN1 (configuration not stated),inactive
14,COc1cccc(CNC(=O)[C@@H]2C[C@@H](O)CN2C2CCN(C(=O)c3ccnn3C)CC2)c1,inactive
15,COc1ccc(N2C(S)=C(C#N)C(=O)NC2c2ccco2)cc1 (configuration not stated),active: 44.7 µM
16,Cc1[nH]c2ccccc2c1/C=N/Nc1cccc(C(=O)O)c1,"inconclusive: 50.1 µM [inhibitor, partial curve, poor fit]"
17,O=C(CNC(=O)c1ccccc1Br)NCCSc1ccc(Br)cc1,"inconclusive: 112 µM [inhibitor, single point]"
18,O=Cc1ccc2[nH]ccc2c1,"inconclusive: 35.5 µM [inhibitor, single point]"
19,CC1CCCCN1Cc1cc(=O)oc2cc(-c3ccccc3)c(O)cc12 (configuration not stated),"inconclusive: 56.2 µM [inhibitor, partial curve, poor fit]"
20,COC(=O)c1c(C)cc(O)cc1O,inactive
21,Cc1ccc(N2C(=O)N(CC(=O)Nc3ccc(C)cc3C)C(=O)C2C)cc1 (configuration not stated),"inconclusive: 44.7 µM [inhibitor, partial curve, poor fit]"

# Gathered by group, the entries above with an NH in an aromatic ring (ten)
row,Structure (SMILES),Potency
8,CC(=O)c1c(C)[nH]c(C(=O)OCC(=O)Nc2ccc3c(c2)OCCO3)c1C,"inconclusive: 50.1 µM [inhibitor, partial curve, poor fit]"
20,CC(=O)Nc1cccc(CCc2nc3ccccc3[nH]2)c1,inactive
17,CCCS(=O)(=O)Nc1ccc(F)c(C(=O)c2c[nH]c3ncc(-c4ccc(Cl)cc4)cc23)c1F,"inconclusive: 1.37 µM [inhibitor, single point]"
1,Cc1ccc(C)c(NC(=O)c2n[nH]c(=O)c3ccccc23)c1,inactive
2,COc1ccccc1-c1cc(C(F)(F)F)c(C#N)c(=O)[nH]1,"inconclusive: 100 µM [inhibitor, partial curve, poor fit]"
9,CCOc1c(OC)cc(Br)c2cc(C(=O)O)[nH]c12,"inconclusive: 112 µM [inhibitor, single point]"
11,C=CC(C)(C)c1[nH]cnc1/C=C1\NC(=O)C(C(C)C)NC1=O (configuration not stated),"inconclusive: 1.78 µM [inhibitor, partial curve, poor fit]"
12,c1cnc2nc([C@H]3CCN(C4CCCCC4)C3)[nH]c2c1,inactive
16,Cc1[nH]c2ccccc2c1/C=N/Nc1cccc(C(=O)O)c1,"inconclusive: 50.1 µM [inhibitor, partial curve, poor fit]"
18,O=Cc1ccc2[nH]ccc2c1,"inconclusive: 35.5 µM [inhibitor, single point]"
